Data as given in patent publication EP3692101B1, “BRILLIANT BLUE (BBG) DYE DERIVATIVES AND STAINING COMPOSITIONS COMPRISING THE SAME FOR SELECTIVELY STAINING BIOLOGICAL SUBSTRATES” (priority 2017, dated 2019).
Some of these results come from one statement about several compounds together.

The chains behind the UniProt entries cited, without tags or fusion partners.
UniProt P00722, whole entry: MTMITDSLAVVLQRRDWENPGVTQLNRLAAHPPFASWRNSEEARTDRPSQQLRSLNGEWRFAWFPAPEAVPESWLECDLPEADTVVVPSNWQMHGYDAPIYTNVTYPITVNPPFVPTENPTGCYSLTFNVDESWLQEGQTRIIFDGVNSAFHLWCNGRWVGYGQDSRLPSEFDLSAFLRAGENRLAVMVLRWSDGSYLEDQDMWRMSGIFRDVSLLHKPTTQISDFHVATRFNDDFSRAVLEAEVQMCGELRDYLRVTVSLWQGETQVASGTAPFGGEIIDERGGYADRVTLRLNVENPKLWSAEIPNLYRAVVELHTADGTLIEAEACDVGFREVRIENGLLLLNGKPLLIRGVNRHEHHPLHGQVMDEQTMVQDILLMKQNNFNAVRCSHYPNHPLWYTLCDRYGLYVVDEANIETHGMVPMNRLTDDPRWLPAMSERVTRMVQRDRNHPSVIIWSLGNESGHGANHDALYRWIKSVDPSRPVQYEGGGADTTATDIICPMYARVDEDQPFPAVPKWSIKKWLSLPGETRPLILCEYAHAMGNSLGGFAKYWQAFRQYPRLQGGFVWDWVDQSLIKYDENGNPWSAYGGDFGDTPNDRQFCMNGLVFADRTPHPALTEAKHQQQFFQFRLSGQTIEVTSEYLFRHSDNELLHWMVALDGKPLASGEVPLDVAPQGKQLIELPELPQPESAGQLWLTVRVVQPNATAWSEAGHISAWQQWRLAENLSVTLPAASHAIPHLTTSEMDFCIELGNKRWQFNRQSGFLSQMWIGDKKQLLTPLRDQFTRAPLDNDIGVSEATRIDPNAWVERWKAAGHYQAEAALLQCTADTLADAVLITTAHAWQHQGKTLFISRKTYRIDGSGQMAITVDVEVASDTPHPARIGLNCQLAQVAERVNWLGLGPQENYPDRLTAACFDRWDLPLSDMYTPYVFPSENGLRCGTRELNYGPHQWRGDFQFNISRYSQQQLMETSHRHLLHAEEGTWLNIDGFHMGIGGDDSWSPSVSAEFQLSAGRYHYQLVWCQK

Molecular target: E.coli beta-galactosidase - 116.3 kDa (Escherichia coli, UniProt P00722)
Experiment: SDS-PAGE protein staining, densitometric analysis of spot intensity
Details: dye 0.05% by weight/volume in gel fixative solution, soaked overnight, ImageJ densitometry

Compound | increase in the area counts, with respect to BBG
CCOc1ccc(N(CC)c2ccc(C(=C3C=CC(=[N+](CC)Cc4cccc(S(=O)(=O)[O-])c4)C=C3C)c3ccc(N(CC)Cc4cccc(S(=O)(=O)O)c4)cc3C)cc2)cc1 [Ethyl-BBG] | 38%
CCOc1ccc(N(Cc2ccccc2)c2ccc(C(=C3C=CC(=[N+](CC)Cc4cccc(S(=O)(=O)[O-])c4)C=C3C)c3ccc(N(CC)Cc4cccc(S(=O)(=O)O)c4)cc3C)cc2)cc1 [Benzyl-BBG] | 38%
